Measurements: publication PMC5069460, “A novel gene cluster allows preferential utilization of fucosylated milk oligosaccharides in Bifidobacterium longum subsp. longum SC596” (Scientific Reports, 2016)

Test system: BLNG_01264 (α-fucosidase)
Experiment: LC-MS of digested HMO pool
Assay type: biochemical, Bifidobacterium longum subsp. longum
Conditions: reduced (alditol) HMO pool; pH 7.0, 45 °C, 1 and 3 h

Substance | % removed
Fuca1-2Galβ1-4Glcβ-Sp0 | ~ 100%
LDFT | ~ 100%
